Measured values taken from US20200255436A1, “CORTICOTROPIN RELEASING FACTOR RECEPTOR ANTAGONISTS” (Spruce Biosciences, Inc., priority 2019, published 2020).
At least one read-out could not be matched to a standard name with certainty.

Tests used:
[1] = Study 2 Part A: multiple-dose (14 days) pharmacokinetics; type: in vivo, human; details: following oral dosing, fed state
Protocol: The 2-part multiple-dose study, Study 2, determined the safety and tolerability of repeated daily doses of Compound 1 and investigated the effects on biomarkers of relevance for the treatment of alcohol dependence.
PK were also evaluated in the multiple-dose, dose-escalation study, Study 2. In Part A of the study, subjects were divided into 3 cohorts and received 50, 150, or 200 mg Compound 1 or placebo for 14 consecutive days (at least 6 subjects received Compound 1 and 2 subjects received placebo in each cohort). […] All dosing occurred in the fed state. An assessment of diurnal cortisol levels, plus when under conditions of glucose clamp, were also carried out both prior to and during the dosing period.
Consistent with the single-dose study (Study 1), concentrations appeared to decline in a bi-exponential manner, characterized by a rapid decrease within the first 24 hours. […] The Tmax appeared to be consistent across doses. Overall half-lives, weight normalized CL/F and V/F were consistent for 150 and 200 mg. However, the values for these latter 2 parameters were almost doubled at the 50-mg dose level. Variability (CV%) for apparent clearance and volume of distribution were large and not reduced with weight-normalization.
Table 8 presents the results of the dose proportionality assessment for the AUC0-24 and Cmax over the tested dose range.

[2] = Study 1: single escalating oral dose pharmacokinetics, fed and fasted; type: in vivo, human; details: 150 mg single oral dose, fed; geometric mean
Protocol: Study 1 was the first-in-human study that investigated the safety, tolerability, and PK of single-escalating doses of Compound 1, given orally, to healthy adult subjects. […] The data from this study were used for the selection of doses for Study 2.
In Study 1, Compound 1 was administered to healthy adult subjects as a single PO dose of 2, 10, 50, 150, 400, or 800 mg in the fed state and 150 mg in the fasted state. Absorption occurred moderately late, achieving peak Cmax between 4 to 6 hours following dosing in the fed state.
When Compound 1 was given in the fed state, median time to reach maximum plasma concentration (Tmax) occurred between 4 and 6 hours.
As part of this single-dose escalation study, a food effect PK investigation was performed to examine Compound 1 exposures in both the fed and fasted states at the 150-mg dose level. A total of 6 subjects were administered 150 mg Compound 1 in each of these 2 dosing groups. Of these 6 subjects, 4 subjects received Compound 1 at the same dose in both fed and fasted states. […] Table 2 provides a summary of the PK parameters at the 150-mg dose level under both fed and fasted state conditions.
PK parameters AUC0-∞ and Cmax were analyzed separately for dose proportionality for Compound 1 from 50 to 800 mg when administered in the fed state. […]

With `CCC(CC)c1cc(C)nc2c(-c3sc(N4CCOCC4)nc3Cl)c(C)nn12` [Compound 1, 4-(4-chloro-5-(2,5-dimethyl-7-(pentan-3-yl)pyrazolo[1,5-a]pyrimidin-3-yl)thiazol-2-yl)morpholine] the “time at which Cmax was achieved (median)” value [1] was 5 h, the VSS/F [2] was 4600 L and the VZ/F [2] was 6620 L.
